Test results: publication PMC7819943, “Rice protein-binding microarrays: a tool to detect cis-acting elements near promoter regions in rice”
The other results are listed elsewhere or left out.

These sequences were tested against T1, OsSMF1 (Oryza sativa, UniProt Q6ZLB0 1-436) (assay: protein-binding microarray (RPBM); PBS, 2% BSA, 51.3 ng/ul salmon testes DNA, 50 uM zinc acetate, 200 nM TF, 25 C, 1 h; high values mean tight binding). Conditions: protein: recombinant; tags: N-terminal polyhistidine and DsRed monomer fusion (pET32a); chain copies: 2; label: CyDye5-dUTP incorporated in the synthesized complementary strand; 3' TTTTT single-stranded linker to array surface; dsDNA, one strand shown.
T1 sequence: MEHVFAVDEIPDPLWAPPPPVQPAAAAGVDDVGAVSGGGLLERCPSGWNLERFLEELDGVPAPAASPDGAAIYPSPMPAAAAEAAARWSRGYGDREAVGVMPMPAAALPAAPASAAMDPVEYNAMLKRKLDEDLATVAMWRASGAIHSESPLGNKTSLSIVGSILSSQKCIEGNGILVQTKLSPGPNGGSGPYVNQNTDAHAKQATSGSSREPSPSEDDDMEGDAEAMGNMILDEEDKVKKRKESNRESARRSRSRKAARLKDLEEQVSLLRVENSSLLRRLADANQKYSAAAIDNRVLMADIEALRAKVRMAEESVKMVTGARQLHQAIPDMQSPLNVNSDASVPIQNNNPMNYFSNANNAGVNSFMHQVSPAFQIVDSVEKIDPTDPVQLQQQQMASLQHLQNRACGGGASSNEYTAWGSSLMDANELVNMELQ
In short: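 In PBS with 2% BSA, salmon testes DNA and 50 µM zinc acetate, 200 nM protein was incubated on a custom Agilent array at 25 °C for 1 h and then washed off. The array had been made double-stranded by primer extension with Cy5-dUTP and blocked with 2% BSA. The proteins were transcription factors fused N-terminally to polyhistidine and DsRed, expressed in E. coli BL21-CodonPlus and purified on Ni–NTA. The binding signal is per-feature fluorescence intensity (arbitrary units) from an Axon 4000B scanner.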
With “TATGCAACCTTTGATATTGGTACAGTGTTCTTCGACAAAACGGAGTCACCTAGTGCAG” the binding signal was 36500 fluorescence intensity (a.u.).
“CAAATGAGTCATAAGATGAGACCCACATTCTTATGTTGTTCGGAGTCACCTAGTGCAG” was tested, and the binding signal was 3550 fluorescence intensity (a.u.).
With “TCCAAAACACACATGCCAATTGTCAGCACTCATTTTGCAACGGAGTCACCTAGTGCAG” the binding signal was 3290 fluorescence intensity (a.u.).
For “GTGGTTTCGCTGCTTGGTCATCACTGCTCCGTCGTCGGCTCGGAGTCACCTAGTGCAG”, the binding signal was 6770 fluorescence intensity (a.u.).
“CGACTCGCCGGTCGCGTTGGCGGCGGTCTGAGAAGCGCTGCGGAGTCACCTAGTGCAG” was tested, and the binding signal was 3150 fluorescence intensity (a.u.).
For “GCTCCTTCAAACACTTCTAAACCGCCACGTGGCACTTTAACGGAGTCACCTAGTGCAG”, the binding signal was 19200 fluorescence intensity (a.u.).
In the case of “TCACGCGTAGCTTCGCCGCTACGTGGCCTCGCGCACGTTACGGAGTCACCTAGTGCAG”, the binding signal was 5500 fluorescence intensity (a.u.).
“GCGGGCGTCTTCGTCAGCAGCTCCGTCTGCGGTGGCTGCTCGGAGTCACCTAGTGCAG” was tested, and the binding signal was 5660 fluorescence intensity (a.u.).
“TTATCTGAAGGAATTGGCAAGGTGGCGACAGGGCTCCAATCGGAGTCACCTAGTGCAG” was tested, and the binding signal was 21600 fluorescence intensity (a.u.).
With “CATGGCACAGCGAAAATGCCACGTGTACTCGTACTCCAGTCGGAGTCACCTAGTGCAG” the binding signal was 13000 fluorescence intensity (a.u.).
With “ATGATGAAAATTCATGACAACTCAAAACCAGTATTCGTTGCGGAGTCACCTAGTGCAG” the binding signal was 4010 fluorescence intensity (a.u.).
In the case of “AAACTACAGTGCATAGAATGTGAATTCTGAACACGTGTTTCGGAGTCACCTAGTGCAG”, the binding signal was 4890 fluorescence intensity (a.u.).
With “GCACACGCAGCAACGCGTGTCGTTTTGTGAGTGGCAAATACGGAGTCACCTAGTGCAG” the binding signal was 3290 fluorescence intensity (a.u.).
In the case of “CAGCGCTAACTAGCTTGTGCAACACCTGAACTGCCTCCAACGGAGTCACCTAGTGCAG”, the binding signal was 16500 fluorescence intensity (a.u.).
With “GCTGCATCGAATGGAGCTCGTCGGAGTCATCGGTCATGTACGGAGTCACCTAGTGCAG” the binding signal was 4940 fluorescence intensity (a.u.).
With “TGCACAGCGTGTTCCTCTCTAGTCTATGTGGACCTTTTGCCGGAGTCACCTAGTGCAG” the binding signal was 3600 fluorescence intensity (a.u.).
With “ATCCCAACAATTTCAGACCCATGACCTATGAATTTTACTTCGGAGTCACCTAGTGCAG” the binding signal was 5260 fluorescence intensity (a.u.).
“CAACTCCGATGACGAAGACAACTACGAGGAGTACATCCCCCGGAGTCACCTAGTGCAG” was tested, and the binding signal was 4980 fluorescence intensity (a.u.).
In the case of “TTTGCTCTGCCATGTAAGCGTCACGTCAATGCCATGTAGGCGGAGTCACCTAGTGCAG”, the binding signal was 11200 fluorescence intensity (a.u.).
With “TCAGTTGCTCACGGCTGATTATATGCCGCAACGACTTATTCGGAGTCACCTAGTGCAG” the binding signal was 3300 fluorescence intensity (a.u.).
In the case of “TCCTCTCCTTCACTCGTACTGTTTCTGATATCATTGATTGCGGAGTCACCTAGTGCAG”, the binding signal was 3790 fluorescence intensity (a.u.).
“ATCACCATGGCTTTAAGAAATGACATCAGCCACCAGTAGACGGAGTCACCTAGTGCAG” was tested, and the binding signal was 6230 fluorescence intensity (a.u.).
For “GGGTGCTACATCTGCAGCCCTTCCGAATCATCACGTGTTCCGGAGTCACCTAGTGCAG”, the binding signal was 3410 fluorescence intensity (a.u.).
With “ACTAGAAGCCATCGATGTGTATCCTGCCTTGCCTGCGTGTCGGAGTCACCTAGTGCAG” the binding signal was 3980 fluorescence intensity (a.u.).
With “TCGCTCGGCGCCGGGCGGCAGCTAGGCGTCATCGTCGCGTCGGAGTCACCTAGTGCAG” the binding signal was 4260 fluorescence intensity (a.u.).
“CGAGCCCGTCCAGGGCCAGGTACTTTCACTCTCACCTCACCGGAGTCACCTAGTGCAG” was tested, and the binding signal was 21900 fluorescence intensity (a.u.).
In the case of “GAGGAGGAATGGAGGAACTGAGGAGTCACCTAGGTGTAGACGGAGTCACCTAGTGCAG”, the binding signal was 3940 fluorescence intensity (a.u.).
With “CAATGCCCGTCACGAATGAGTCATCTGTGACGGGCCTAGTCGGAGTCACCTAGTGCAG” the binding signal was 13400 fluorescence intensity (a.u.).
“AACGCTTTGCGGTGATCTTAAAGTCGCCAAACACCTCAATCGGAGTCACCTAGTGCAG” was tested, and the binding signal was 15600 fluorescence intensity (a.u.).
“TCTCCAAGCCCACGAACACCCACAGCCACCGTGAGCTCGACGGAGTCACCTAGTGCAG” was tested, and the binding signal was 3300 fluorescence intensity (a.u.).
In the case of “TACGCTAGTGTTGGTATATTTTAAGCGAGAATATTTGATGCGGAGTCACCTAGTGCAG”, the binding signal was 17300 fluorescence intensity (a.u.).
With “ATCGCGACGCACCTCGCGGATCGGTGACGTGGCCTCGCCCCGGAGTCACCTAGTGCAG” the binding signal was 28400 fluorescence intensity (a.u.).
For “CCAAACGTGCTCCAAACATCCACGAACTCACCTCGATTACCGGAGTCACCTAGTGCAG”, the binding signal was 25200 fluorescence intensity (a.u.).
For “GTTTCAGTAGGAAATTATGAATGCTTTCAATTCCCTGTGACGGAGTCACCTAGTGCAG”, the binding signal was 3270 fluorescence intensity (a.u.).
“TGTTCGGCGCGGGCGTCACCACTTTCCGCCTCAACATGAACGGAGTCACCTAGTGCAG” was tested, and the binding signal was 3390 fluorescence intensity (a.u.).
In the case of “AGTCAAGTTTCTATATCCGGTAGACCAGCGTGGCAAAGGCCGGAGTCACCTAGTGCAG”, the binding signal was 4520 fluorescence intensity (a.u.).
With “AGATCGACAGGGCTTCGCCACGATAACCAGAGGCGCCCGTCGGAGTCACCTAGTGCAG” the binding signal was 3460 fluorescence intensity (a.u.).
For “GATTAGTCAAGTTGATTATGAGAGTAAAATACACTATCTACGGAGTCACCTAGTGCAG”, the binding signal was 4660 fluorescence intensity (a.u.).
With “GGCGTATGAACAATTAAGTGACTAGTCGTCAGTCAGGTAGCGGAGTCACCTAGTGCAG” the binding signal was 4250 fluorescence intensity (a.u.).
With “GGGGTGGACGGCCGGCGTGCACGGTTCCGCTGACACAGACCGGAGTCACCTAGTGCAG” the binding signal was 3340 fluorescence intensity (a.u.).
For “GTGGAAAAGCCAAAGGCAAAGGCAAACCACGCGTCTCTCTCGGAGTCACCTAGTGCAG”, the binding signal was 17400 fluorescence intensity (a.u.).
With “TATGCCTTCCACTTCCACGTCAGCTTTCCCACACTGGTCTCGGAGTCACCTAGTGCAG” the binding signal was 11800 fluorescence intensity (a.u.).
